The target in one assay is T1, AKIR-1::GFP (C. elegans) (UniProt Q966L3).
T1 sequence: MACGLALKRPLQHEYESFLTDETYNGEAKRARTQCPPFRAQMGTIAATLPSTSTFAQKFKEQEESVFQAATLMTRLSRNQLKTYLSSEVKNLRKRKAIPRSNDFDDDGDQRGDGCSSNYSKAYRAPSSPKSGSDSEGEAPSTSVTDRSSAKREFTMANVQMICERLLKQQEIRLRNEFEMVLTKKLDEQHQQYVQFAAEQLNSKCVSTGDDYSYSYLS
Kind of assay: co-IP; complexes immunopurified with an anti-GFP antibody from control or D. coniospora-infected worms expressing AKIR-1::GFP (the strain used for mass spectrometry and the single copy insertion strain); Western blot with anti-HDA-1 and anti-LET-418.

The chains behind the UniProt entries cited, without tags or fusion partners.
UniProt O17695: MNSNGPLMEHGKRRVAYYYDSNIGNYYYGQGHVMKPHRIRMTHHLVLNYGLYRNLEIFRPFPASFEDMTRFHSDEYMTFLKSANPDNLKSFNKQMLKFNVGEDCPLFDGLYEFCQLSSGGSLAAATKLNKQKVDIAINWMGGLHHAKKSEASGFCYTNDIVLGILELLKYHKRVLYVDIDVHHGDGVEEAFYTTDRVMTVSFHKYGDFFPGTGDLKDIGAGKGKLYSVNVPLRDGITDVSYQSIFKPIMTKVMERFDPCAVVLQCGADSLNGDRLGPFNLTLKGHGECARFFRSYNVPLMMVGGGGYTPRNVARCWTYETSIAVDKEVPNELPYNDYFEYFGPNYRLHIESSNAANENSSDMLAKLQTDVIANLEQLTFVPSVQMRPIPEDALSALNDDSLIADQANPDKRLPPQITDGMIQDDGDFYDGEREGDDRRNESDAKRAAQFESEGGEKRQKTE
UniProt G5EBZ4: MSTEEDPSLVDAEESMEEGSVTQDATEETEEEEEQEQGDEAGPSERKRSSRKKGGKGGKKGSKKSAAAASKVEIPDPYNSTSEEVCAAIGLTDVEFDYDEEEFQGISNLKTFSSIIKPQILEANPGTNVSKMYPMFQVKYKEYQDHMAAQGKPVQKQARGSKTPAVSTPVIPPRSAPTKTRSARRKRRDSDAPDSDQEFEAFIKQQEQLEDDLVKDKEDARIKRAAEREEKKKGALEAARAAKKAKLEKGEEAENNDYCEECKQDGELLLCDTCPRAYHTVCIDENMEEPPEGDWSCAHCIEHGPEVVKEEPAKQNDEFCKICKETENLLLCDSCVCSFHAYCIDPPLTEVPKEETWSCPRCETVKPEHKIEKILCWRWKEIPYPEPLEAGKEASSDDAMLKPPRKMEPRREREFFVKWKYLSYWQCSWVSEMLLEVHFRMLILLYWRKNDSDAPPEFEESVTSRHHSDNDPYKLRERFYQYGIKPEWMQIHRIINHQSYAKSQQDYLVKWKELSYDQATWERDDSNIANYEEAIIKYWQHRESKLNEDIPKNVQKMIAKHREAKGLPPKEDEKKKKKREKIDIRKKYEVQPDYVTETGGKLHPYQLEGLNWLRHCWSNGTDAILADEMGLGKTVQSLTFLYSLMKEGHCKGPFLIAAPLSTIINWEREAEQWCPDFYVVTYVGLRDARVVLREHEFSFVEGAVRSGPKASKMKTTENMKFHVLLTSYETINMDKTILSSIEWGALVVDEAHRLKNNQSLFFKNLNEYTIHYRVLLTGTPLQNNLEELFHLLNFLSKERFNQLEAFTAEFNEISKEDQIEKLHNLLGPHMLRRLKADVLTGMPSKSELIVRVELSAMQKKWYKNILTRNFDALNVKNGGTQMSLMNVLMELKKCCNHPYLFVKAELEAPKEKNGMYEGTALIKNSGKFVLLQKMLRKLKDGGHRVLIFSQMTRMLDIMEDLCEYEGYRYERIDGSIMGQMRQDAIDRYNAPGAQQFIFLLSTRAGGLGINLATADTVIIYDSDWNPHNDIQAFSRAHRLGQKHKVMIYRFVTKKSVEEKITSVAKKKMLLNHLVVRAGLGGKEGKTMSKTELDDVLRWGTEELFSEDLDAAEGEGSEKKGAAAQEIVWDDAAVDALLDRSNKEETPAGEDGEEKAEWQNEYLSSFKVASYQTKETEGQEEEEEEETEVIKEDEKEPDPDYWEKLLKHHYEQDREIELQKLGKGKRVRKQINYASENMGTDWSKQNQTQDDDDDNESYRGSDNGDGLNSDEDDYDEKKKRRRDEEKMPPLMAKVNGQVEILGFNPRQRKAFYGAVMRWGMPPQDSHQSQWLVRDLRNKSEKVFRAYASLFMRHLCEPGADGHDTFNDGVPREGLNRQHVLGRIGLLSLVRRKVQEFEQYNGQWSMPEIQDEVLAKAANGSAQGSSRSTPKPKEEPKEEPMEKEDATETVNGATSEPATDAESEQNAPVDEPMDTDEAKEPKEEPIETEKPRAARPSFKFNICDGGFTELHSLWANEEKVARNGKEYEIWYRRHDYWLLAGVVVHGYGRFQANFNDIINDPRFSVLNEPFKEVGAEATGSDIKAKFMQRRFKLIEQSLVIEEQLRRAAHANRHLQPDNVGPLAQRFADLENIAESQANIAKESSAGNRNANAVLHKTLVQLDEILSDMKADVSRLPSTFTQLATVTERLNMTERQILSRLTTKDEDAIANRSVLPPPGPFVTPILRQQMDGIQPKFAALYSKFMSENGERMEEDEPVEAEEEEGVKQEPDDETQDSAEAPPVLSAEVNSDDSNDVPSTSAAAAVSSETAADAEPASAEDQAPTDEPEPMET

Assay [1] concerns the target T2, CEH-18::TY1::GFP::3xFLAG (C. elegans) (UniProt P41934).
T2 sequence: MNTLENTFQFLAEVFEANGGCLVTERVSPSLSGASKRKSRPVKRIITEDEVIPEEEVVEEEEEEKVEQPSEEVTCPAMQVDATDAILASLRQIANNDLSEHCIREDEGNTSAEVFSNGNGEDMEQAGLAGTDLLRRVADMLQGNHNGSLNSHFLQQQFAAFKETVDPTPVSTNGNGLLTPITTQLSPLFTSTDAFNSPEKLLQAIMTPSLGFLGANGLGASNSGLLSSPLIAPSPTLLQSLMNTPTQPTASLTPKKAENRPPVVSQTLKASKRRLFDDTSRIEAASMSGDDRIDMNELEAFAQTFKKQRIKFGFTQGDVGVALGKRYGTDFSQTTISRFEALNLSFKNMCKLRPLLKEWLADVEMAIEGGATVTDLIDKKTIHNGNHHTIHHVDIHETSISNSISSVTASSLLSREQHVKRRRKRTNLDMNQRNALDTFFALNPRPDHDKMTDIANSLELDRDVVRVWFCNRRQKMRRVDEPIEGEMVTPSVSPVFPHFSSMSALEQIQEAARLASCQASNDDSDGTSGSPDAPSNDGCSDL
Kind of assay: co-IP; anti-FLAG (M2) immunoprecipitation from lysate of mixed-stage IG1665 worms co-expressing AKIR-1::GFP and CEH-18::TY1::GFP::3xFLAG, 200 μg of total protein, Dynabeads Protein G; anti-HA as unrelated control antibody; Western blot with anti-FLAG and anti-GFP.

Results are given in words; binding and its absence hold for the method and conditions named. Binding seen in cells or lysates may run through a third protein. Some entries that bind do so weakly or less than the wild type. Where a sequence is shown, tags or fusion partners need not be part of it.

Data on three molecules can be found in article PMC6072134.

Consider HDA-1 (from UniProt O17695 1-461), for which, in the assay with AKIR-1::GFP (C. elegans), the binding result is recorded as “binds”.
On the same count and under the same terms, under LET-418 (from UniProt G5EBZ4 1-1829) stands “binds”.

B1: AKIR-1::GFP (protein, UniProt Q966L3 1-218)
chain: MACGLALKRPLQHEYESFLTDETYNGEAKRARTQCPPFRAQMGTIAATLPSTSTFAQKFKEQEESVFQAATLMTRLSRNQLKTYLSSEVKNLRKRKAIPRSNDFDDDGDQRGDGCSSNYSKAYRAPSSPKSGSDSEGEAPSTSVTDRSSAKREFTMANVQMICERLLKQQEIRLRNEFEMVLTKKLDEQHQQYVQFAAEQLNSKCVSTGDDYSYSYLS
Regarding B1, in assay [1], the binding entry was “binds”.
